PubChem BioAssay AID1508597, Cure First, 2020

Purpose: 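Survival screen with siRNA in ovarian cancer cells derived from patients, with or without rucaparib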 (primary screen)
Cell system: human ovarian carcinoma lines grown from tumours: OCI-P5x (papillary serous) and OCI-C5x (clear cell)
Reagents: siRNA pool against human genes, 1.25 pmol siRNA per well
Timing: 72 h or 96 h, depending on the cell culture
Conditions: rucaparib 20 µM (about IC30) or vehicle, present until read-out
Rucaparib or vehicle: Rucaparib
Cell line: OCI-P5x (serous)
Detection: 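ATP luminescence measured at 72 or 96 h according to the culture, then normalised and expressed as percent viability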
Scale: viability, normalised: higher = more viable cells remaining
Rule for the call: 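Active when normalised viability falls below 80 percent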
Calls: active = viability under 80%; inactive = viability 80% or more
This is a random part of the about 2,100 reagents, in one setting of the screen. 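Calls flag viability under 80% in either arm, not effects specific to rucaparib; the reference for percent is not stated.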 A reagent listed more than once was tested more than once; the source does not tell the runs apart. Not given: the 100% reference.

no.	Gene	technical replicate	viability, normalised (%)	Call
1	GAK (cyclin G associated kinase)	1	55.8	active
2	GAK (cyclin G associated kinase)	2	78.4	active
3	GAK (cyclin G associated kinase)	3	56.5	active
4	TNKS2 (tankyrase 2)	1	50.8	active
5	TNKS2 (tankyrase 2)	1	75.7	active
6	TNKS2 (tankyrase 2)	2	88	inactive
7	TNKS2 (tankyrase 2)	2	55.1	active
8	TNKS2 (tankyrase 2)	3	73.5	active
9	TNKS2 (tankyrase 2)	3	49	active
10	STK38L (serine/threonine kinase 38 like)	1	99.9	inactive
11	STK38L (serine/threonine kinase 38 like)	2	99.6	inactive
12	STK38L (serine/threonine kinase 38 like)	3	77.2	active
13	PASK (PAS domain containing serine/threonine kinase)	1	43.8	active
14	PASK (PAS domain containing serine/threonine kinase)	2	42.9	active
15	PASK (PAS domain containing serine/threonine kinase)	3	52.4	active

Reformatted: results already given.
STK38L (serine/threonine kinase 38 like), technical replicate 2 — viability, normalised (%) = 99.6; Call = inactive
STK38L (serine/threonine kinase 38 like), technical replicate 3 — viability, normalised (%) = 77.2; Call = active

More results follow:
no.	Gene	technical replicate	viability, normalised (%)	Call
16	BRCA1 (BRCA1 DNA repair associated)	1	38.9	active
17	BRCA1 (BRCA1 DNA repair associated)	1	92.4	inactive
18	BRCA1 (BRCA1 DNA repair associated)	2	89.8	inactive
19	BRCA1 (BRCA1 DNA repair associated)	2	41.2	active
20	BRCA1 (BRCA1 DNA repair associated)	3	65.9	active
21	BRCA1 (BRCA1 DNA repair associated)	3	43.6	active
22	CHMP6 (charged multivesicular body protein 6)	1	50.2	active
23	CHMP6 (charged multivesicular body protein 6)	2	87.8	inactive
24	CHMP6 (charged multivesicular body protein 6)	3	63.4	active
25	DDX46 (DEAD-box helicase 46)	1	66.6	active
26	DDX46 (DEAD-box helicase 46)	2	59.9	active
27	DDX46 (DEAD-box helicase 46)	3	58.2	active
28	PFKP (phosphofructokinase, platelet)	1	120	inactive
29	PFKP (phosphofructokinase, platelet)	2	129	inactive
30	PFKP (phosphofructokinase, platelet)	3	121	inactive
31	G6PC1 (glucose-6-phosphatase catalytic subunit 1)	1	71	active
32	G6PC1 (glucose-6-phosphatase catalytic subunit 1)	2	57.5	active
33	G6PC1 (glucose-6-phosphatase catalytic subunit 1)	3	61.4	active
34	CLDN3 (claudin 3)	1	56.6	active
35	CLDN3 (claudin 3)	2	55.3	active
36	CLDN3 (claudin 3)	3	42.8	active
37	RERE (arginine-glutamic acid dipeptide repeats)	1	46.3	active
38	RERE (arginine-glutamic acid dipeptide repeats)	2	49.8	active
39	RERE (arginine-glutamic acid dipeptide repeats)	3	51.1	active
